# Experimental data reported in PubChem BioAssay AID493014 (National Center for Advancing Translational Sciences (NCATS), 2011).
# About 170 (0.05%) of roughly 340,000 compounds were called active. This list was built around the results that the source calls inconclusive (neither active nor inactive); the mix of calls is not that of the screen. Calls come from the whole dose curve; as a rule, active = well fitted inhibition curve with a large enough effect in the signal ratio, with a control signal flat (not every such curve was filed as active); inconclusive = small, poorly fitted or top-dose-only effect, or effect the other way, or a change in a side signal; inactive = flat fitted curve, though single readings scatter; the % refers to the signal ratio. A potency beside an inconclusive call is a rough fit, not a confirmed value.
# Test: qHTS Assay to Find Inhibitors of Chronic Active B-Cell Receptor Signaling;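 for activity change, negative = inhibition: plate controls were basal doxycycline-induced cells for no effect and cells given 10 µM MG132 for full effect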
# Conditions: ABC-DLBCL IkBa-CBG/CBR reporter, luminescence ratio (green luciferase fused to IkBa over red control in TMD8 lymphoma cells), 4 h; activity change, negative = inhibition: at 46.1 µM (top of the series) unless noted
# In short: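 Cell line TMD8 (human ABC DLBCL), stably expressing tet-inducible CBG68-IkBa fusion and CBR; IMDM/0.5% FBS; cpd up to 46 uM; dox induction, 4 h, 37C/5% CO2; dual luminescence; green/red ratio; MG132 control.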
# Potency is the fitted concentration of half-maximal effect.
SMILES,Potency,"activity change, negative = inhibition"
COc1ccc(/C=N/NC(=O)c2cc(-c3ccccc3)nc3ccccc23)cc1O,"inconclusive: 22.4 µM [falling, partial curve, poor fit]",–
Nc1cccc(-c2nc3ccc(N)cc3s2)c1,"inconclusive: 22.4 µM [falling, partial curve]",–
Cc1ccc(-n2c(-c3ccccc3)c[n+]3c2CCc2ccccc2-3)c(C)c1,–,inconclusive: -1.53%
CC(=O)Nc1nc2cc([N+](=O)[O-])ccc2s1,–,inconclusive: 13.9%
Cc1onc(-c2ccccc2)c1C(O)c1ccc(F)cc1 (stereo unspecified),–,inactive
Cc1cc2c(c(=O)o1)C1O[C@](CCCCN3C(=O)c4ccccc4C3=O)(Cc3cc(C#N)ccc31)O2,"inconclusive: 3.55 µM [activator, single point]",–
O=C1[C@@H]2[C@H](C(=O)N1n1cnnc1)[C@H]1C=C[C@@H]2C1,–,inconclusive: 8.67%
CCCCOc1cccc(C2(C(=O)O)CCCC2)c1,–,inconclusive: 12%
Cc1ccc(-c2noc(CCC(=O)Nc3ccc(C)cn3)n2)cc1,"inconclusive: 6.31 µM [falling, single point]",–
COC(=O)c1ccc(Oc2ccc(S(=O)(=O)N3CCCCC3)cc2N)cc1,–,inconclusive: -12.1%
COc1ccc(S(=O)(=O)NCc2ccc(C(=O)N(C)Cc3ccco3)cc2)cc1,–,inconclusive: 9.66%
N#C/C(=C\c1ccc(-c2ccc(C(=O)O)cc2)o1)c1nc2ccccc2[nH]1,–,inconclusive: -91.3%
O=C(Nc1nc2ccccc2s1)C1CCN(S(=O)(=O)c2cc([N+](=O)[O-])ccc2Cl)CC1,–,inconclusive: 10.5%
Cc1cc(O)c(C(=O)Nc2cccc(Cl)c2)c(=O)n1C,–,inconclusive: 5.14%
COC(=O)[C@@H](Cc1ccccc1)NC(=O)NCCc1ccccc1,–,inconclusive: 9.6%
Cc1cc(Cl)ccc1OCC(=O)Nc1cccc(S(=O)(=O)NC2=NCCCCC2)c1,–,inactive
O=[N+]([O-])c1ccc(O)c(/C=N/Nc2ccccc2[N+](=O)[O-])c1,–,inconclusive: -0.126%
COc1ccc(S(=O)(=O)N2CCCCC2)cc1NC(=S)Nc1ccccc1,–,inconclusive: -26.4%
CC(C)CCNC(=O)C(=O)NC1CCCC1,–,inconclusive: -7%
O=C(O)CNC(=O)c1ccccc1NC(=O)c1ccco1,"inconclusive: 18.4 µM [rising, partial curve, poor fit]",–
COc1ccccc1-n1ccnc(SCC(=O)NCCc2ccccc2)c1=O,"inconclusive: 7.31 µM [falling, partial curve, poor fit]",–
COCCn1c(=NC(=O)c2nc3ccccc3s2)sc2cc(S(C)(=O)=O)ccc21,–,inactive
O=c1c2cc(NC(=S)N3CCC(N4CCCCC4)CC3)ccc2nc2n1CCCCC2,–,inconclusive: -4.32%
Cc1cc(NC(=O)CN2C(=O)C3CC=CCC3C2=O)no1 (stereo unspecified),–,inconclusive: 12.2%
c1ccc(-c2ccc(-c3nccc4ccccc34)[nH]2)cc1,–,inconclusive: 163%
Cc1cc(C)n(-c2nc(SCC(=O)Nc3nccs3)c3c4c(sc3n2)COC(C)(C)C4)n1,–,inconclusive: -11.8%

SMILES,Potency,"activity change, negative = inhibition"
COc1ccc(-c2nnn(CC(=O)N(CC3CCCO3)C(C(=O)NC(C)(C)C)c3ccco3)n2)cc1OC (stereo unspecified),–,inconclusive: 3.61%
CCOC(=O)c1n[nH]n(-c2cc(Cl)cc(Cl)c2)c1=O,"inconclusive: 22.4 µM [falling, partial curve]",–
N#C/C(=C\c1ccc(C(=O)O)cc1)c1ccccn1,–,inactive
Cc1cc(C)c2nc(C(F)(F)F)nc(NCCCN3CCOCC3)c2c1,"inconclusive: 20.6 µM [falling, single point]",–
COc1ccc(/C=C/C(=O)c2ccc(O)cc2)cc1CN1CCOCC1,"inconclusive: 29.1 µM [falling, single point]",–
O=C(COC(=O)/C=C/c1ccc(Cl)c(Cl)c1)NC1CCS(=O)(=O)C1 (stereo unspecified),"inconclusive: 32.6 µM [falling, partial curve, poor fit]",–
Cn1cc(/C=C2\SC(=O)N(c3ccccc3)C2=O)c2ccccc21,"inconclusive: 3.26 µM [falling, single point]",–
Cc1ccccc1NC(=O)Nc1cccs1,"inconclusive: 20.6 µM [falling, partial curve]",–
NC(=O)COC(=O)CCCc1nc2ccccc2s1,–,inconclusive: 21%
CC(=O)C1=C(C)OC(N)=C(C#N)C1c1cc2cc(C)c(C)cc2nc1Cl (stereo unspecified),"inconclusive: 8.2 µM [falling, partial curve]",–
Cc1cccc2cc3c(N)c(C(=O)N4CCCc5ccccc54)sc3nc12,"inconclusive: 6.51 µM [falling, single point]",–
CC[C@]12c3[nH]c4cc(-c5ccco5)ccc4c3CCN1C(=O)[C@@H](CC(=O)NCC13CC4CC(CC(C4)C1)C3)C[C@@H]2C(=O)N1CCN(C(=O)c2ccco2)CC1,–,inconclusive: -18.9%
Clc1cccc(CNCCCSc2ncccn2)c1,–,inactive
Cc1cc(N)n2nc(-c3ccc(C(C)(C)C)cc3)cc2n1,–,inconclusive: 28.4%
CCc1ccc(C2=NN(CCC(=O)NC3CC3)C(=O)CC2)cc1,–,inconclusive: -0.738%
CN(Cc1ccccc1)/C(=N/O)c1cccc(Cl)c1,–,inconclusive: 2.96%
Cc1ccc(C(=O)CC(C(=O)O)n2cnc([N+](=O)[O-])n2)cc1 (stereo unspecified),"inconclusive: 10 µM [falling, partial curve, poor fit]",–
COc1ccc(OC(C)C(=O)N(C)Cc2nc(-c3ccccc3)no2)cc1 (stereo unspecified),–,inactive
C=CCC[C@H](Cc1ccc(F)cc1)C(=O)OC[C@@H](Cc1c[nH]c2ccccc12)NC(=O)[C@H](CC=C)CC(=O)N[C@H](CO)Cc1ccccc1,–,inconclusive: -8.67%
CCCOc1ccc(NC(=O)CC2C(=O)N(Cc3ccccc3)C(=S)N2Cc2cccs2)cc1 (stereo unspecified),–,inconclusive: 2.48%
COCCn1c(SCC(=O)NCc2ccco2)nnc1C(C)C,–,inconclusive: 13.2%
CC(=O)c1sc(NC(=O)COc2ccc(Cl)cc2Cl)nc1C,"inconclusive: 35.5 µM [falling, single point]",–
Cc1ccc(C)c(CN2C(=O)c3ccccc3Sc3ccc(C(=O)NCc4ccc5c(c4)OCO5)cc32)c1,"inconclusive: 3.16 µM [falling, single point]",–
COc1ccccc1OCC(=O)Nn1c(=S)[nH]c2ncccc2c1=O,–,inconclusive: 2.24%
CN(C)c1ccc(C(=O)c2ccccc2)cc1,"inconclusive: 3.26 µM [falling, partial curve, poor fit]",–
Cc1occc1-c1nnc(SCC(=O)Nc2nccs2)n1CCc1ccccc1,"inconclusive: 29.1 µM [rising, partial curve, poor fit]",–

SMILES,Potency,"activity change, negative = inhibition"
COc1ccc(/C=C(/NC(=O)c2ccccc2)C(=O)N2CCC(C)CC2)cc1,–,inconclusive: 0.86%
O=C(NC12CC3CC(CC(C3)C1)C2)c1ccc(-c2ccc(Cl)cc2)o1,–,inconclusive: -3.56%
N#CCC(=O)Nc1ccc(C(=O)OCC(=O)N2CCN(C(=O)c3ccco3)CC2)cc1,"inconclusive: 29.1 µM [falling, single point]",–
O=C(CN1C(=O)c2ccccc2S1(=O)=O)NC1CCCCCC1,–,inconclusive: 4.64%
O=C(O)c1ccc2nc(-c3ccco3)c(-c3ccco3)nc2c1,–,inconclusive: 2.52%
O=C(C1Cc2ccccc2CN1S(=O)(=O)c1cccs1)N1CCCCCC1 (stereo unspecified),"inconclusive: 18.4 µM [falling, partial curve]",–
COc1ccc(C(=O)C2CCCN(C(=O)c3cc(C4CC4)[nH]n3)C2)c(C)c1 (stereo unspecified),–,inactive
COc1ccccc1CNS(=O)(=O)c1cccc(S(=O)(=O)N2CCOCC2)c1,–,inconclusive: -4.87%
CCCCNc1c(-c2ccc(-c3cccc(Cl)c3)cc2)nc2ccccn12,–,inactive
CC(=O)c1ccc(Sc2nnnn2-c2ccccc2)c([N+](=O)[O-])c1,–,inactive
CN(C)/C=N/c1nc(-c2ccc3ccccc3c2)cs1,–,inconclusive: -29%
CC(=O)c1ccc(N2CCN(C(=O)c3ccc(C(=O)c4ccccc4)cc3)CC2)cc1,–,inactive
CC(CCc1ccc(O)cc1)NC1C2CC3CC(C2)CC1C3 (stereo unspecified),–,inconclusive: -0.906%
O=C(Nc1ccccc1O)c1ccc(NC(=O)C2CC2)cc1,"inconclusive: 11.2 µM [falling, single point]",–
C=CCOc1ccccc1CNCCc1ccc(S(N)(=O)=O)cc1,–,inconclusive: -13.5%
CN(C)S(=O)(=O)c1ccc(C(=O)Nc2ccccc2F)cc1,"inconclusive: 29.1 µM [falling, single point]",–
Cc1cc(CSC(=N)N)c(CSC(=N)N)cc1C,"inconclusive: 35.5 µM [falling, single point]",–
O=C1OC(c2cccs2)=N/C1=C\c1ccc(-c2cccc(Cl)c2)o1,–,inactive
COC(=O)c1sc(NC(=O)/C=C/c2ccc(C)o2)nc1C,"inconclusive: 9.2 µM [falling, partial curve]",–
CC(C)(C)NCC(O)(c1ccc(Cl)cc1)c1ccc(Cl)cc1,"inconclusive: 35.5 µM [falling, single point]",–
NC(=O)COC(=O)c1cccc(S(=O)(=O)N2CCCc3ccccc32)c1,–,inactive
Cc1cc(C(=O)Cn2nnc3ccccc3c2=O)c(C)n1Cc1cccs1,–,inconclusive: -21.1%
O=C(O)c1ccc(COc2ccc(Cl)cc2)o1,"inconclusive: 20.6 µM [falling, partial curve]",–
Cn1cc(C(=O)C(=O)N2CCCc3ccccc32)c2ccccc21,"inconclusive: 0.562 µM [falling, full curve, poor fit]",–

# Whole records, looked up by structure.
# CC(=O)Nc1nc2cc([N+](=O)[O-])ccc2s1 is entered as activity change, negative = inhibition: inconclusive: 13.9%
# CC(=O)C1=C(C)OC(N)=C(C#N)C1c1cc2cc(C)c(C)cc2nc1Cl (stereo unspecified) is entered as Potency: inconclusive: 8.2 µM [falling, partial curve]
# Cc1cc(C)c2nc(C(F)(F)F)nc(NCCCN3CCOCC3)c2c1 is entered as Potency: inconclusive: 20.6 µM [falling, single point]
# Clc1cccc(CNCCCSc2ncccn2)c1 is entered as activity change, negative = inhibition: inactive
